This note sets out measurements from paper PMC10647249.

These are yes or no findings as the source states them, for the method shown. Binding calls can cover weak binding; strength is not graded here. Tags and fused reporters may be left off the sequences shown. For some assays here: In cells and extracts the contact can be indirect.

Experiment [1] concerns the target OsCIPK9 (yeast two-hybrid fusion) (rice (japonica Nipponbare)). Briefly: two-hybrid; MatchMaker GAL4 Two-Hybrid System, pGADT7 and pGBKT7 constructs co-transformed into yeast AH109; transformants on SD/-Leu/-Trp (DDO), interaction screened on SD/-Leu/-Trp/-His/-Ade (QDO).
Experiment [2] concerns the target OsCIPK9 (split luciferase fusion) (rice). Put plainly: split reporter; firefly luciferase complementation imaging (LCI) in N. benthamiana leaf epidermal cells; pCAMBIA-nLUC and pCAMBIA-cLUC constructs delivered by Agrobacterium EHA105; LUC activity imaged with a Nightshade LB 985 system.

B1: OsSOS3 (yeast two-hybrid fusion) (protein, UniProt Q75KU4 1-210)
chain: MGCASSKQFKRPPGYEEPAVLAAQTTFTVNEVEALRELYNKMSYSIIKDGLIHKEEFQLALFRNSRKANLFADRVFDLFDLKRNGVIEFGEFVRSLSVFHPKAPKSEKTAFAFKLYDLRGTGYIEKEELREMVLALLDESDLHLSECAVEAIVDNTFSQADSNGDGRIDPEEWEEFVKANPASLRNMSLPYLQDITMAFPSFVMHSEAHD
On to B1, for which the binding result in experiment [1] is “binds”.

B2: OsSOS3 (split luciferase fusion) (protein, UniProt Q75KU4 1-210)
chain: MGCASSKQFKRPPGYEEPAVLAAQTTFTVNEVEALRELYNKMSYSIIKDGLIHKEEFQLALFRNSRKANLFADRVFDLFDLKRNGVIEFGEFVRSLSVFHPKAPKSEKTAFAFKLYDLRGTGYIEKEELREMVLALLDESDLHLSECAVEAIVDNTFSQADSNGDGRIDPEEWEEFVKANPASLRNMSLPYLQDITMAFPSFVMHSEAHD
On to B2, for which, in experiment [2], the binding entry was “binds”.
